Laboratory results reported in PMC7819943, “Rice protein-binding microarrays: a tool to detect cis-acting elements near promoter regions in rice”.
Some of the results follow.

Molecular target: T1, OsSMF1 (Oryza sativa, UniProt Q6ZLB0 1-436)
T1 sequence: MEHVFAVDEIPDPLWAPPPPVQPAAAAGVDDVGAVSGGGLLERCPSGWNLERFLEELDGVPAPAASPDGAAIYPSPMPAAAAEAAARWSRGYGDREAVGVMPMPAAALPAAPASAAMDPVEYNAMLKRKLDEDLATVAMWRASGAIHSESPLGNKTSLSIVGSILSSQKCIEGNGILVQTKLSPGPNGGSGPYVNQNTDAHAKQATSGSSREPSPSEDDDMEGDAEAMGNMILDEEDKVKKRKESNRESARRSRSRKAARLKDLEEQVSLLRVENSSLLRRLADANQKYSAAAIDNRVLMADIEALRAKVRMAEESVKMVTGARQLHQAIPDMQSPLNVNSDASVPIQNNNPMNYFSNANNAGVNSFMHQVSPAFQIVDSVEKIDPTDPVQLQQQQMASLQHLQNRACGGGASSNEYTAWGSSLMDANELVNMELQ
Test: protein-binding microarray (RPBM); PBS, 2% BSA, 51.3 ng/ul salmon testes DNA, 50 uM zinc acetate, 200 nM TF, 25 C, 1 h; high values mean tight binding
Details: protein: recombinant; tags: N-terminal polyhistidine and DsRed monomer fusion (pET32a); chain copies: 2; label: CyDye5-dUTP incorporated in the synthesized complementary strand; 3' TTTTT single-stranded linker to array surface; dsDNA, one strand shown
Procedure, shortened: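 Using Ni–NTA, transcription factors fused N-terminally to polyhistidine and DsRed were purified after expression in E. coli BL21-CodonPlus. These were incubated at 200 nM with a blocked, double-stranded custom Agilent array for 1 h at 25 °C in a buffer containing 50 µM zinc acetate, and the array was washed. The binding signal is per-feature fluorescence intensity (arbitrary units) on an Axon 4000B scanner.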

Row | Sequence | binding signal
1 | TCTCTTCTCGGGCATCAGGCGTCAGCCCTTAAGGCGCCACCGGAGTCACCTAGTGCAG | 3150 fluorescence intensity (a.u.)
2 | ATTGGACGATAAAATATTGGACGGTGATTCACCTTTTAGACGGAGTCACCTAGTGCAG | 3170 fluorescence intensity (a.u.)
3 | ATAATGCAACGATTTCGTAGTCACGTACAGACACCGTCTCCGGAGTCACCTAGTGCAG | 4250 fluorescence intensity (a.u.)
4 | AAAATCTGACAAGAAACAAATCGATAGACATCATGGGTTCCGGAGTCACCTAGTGCAG | 16500 fluorescence intensity (a.u.)
5 | GTCATGTGAAGTAGCGCCTTGAGTCATCATCGTCAACGCTCGGAGTCACCTAGTGCAG | 7390 fluorescence intensity (a.u.)
6 | TCATTTCCAATGCATTCTTAATTTAGAGGAAGGATAATAGCGGAGTCACCTAGTGCAG | 3570 fluorescence intensity (a.u.)
7 | TGTTGAATGAACGGTAGGCTGACGGCGATGGCATTTCTGGCGGAGTCACCTAGTGCAG | 7580 fluorescence intensity (a.u.)
8 | TGGATATTTTCTCCGTCGATTGGTACAGTACACAGGTGTGCGGAGTCACCTAGTGCAG | 3190 fluorescence intensity (a.u.)
9 | GAGATCGATCGGGCGGAGGCGCCGCGCCACGCCGCGGCCACGGAGTCACCTAGTGCAG | 3330 fluorescence intensity (a.u.)
10 | CCTTCTCTCTCACCTGCGCACACGTACTGTACATATATACCGGAGTCACCTAGTGCAG | 4500 fluorescence intensity (a.u.)
11 | AATGCTGAAGTTGTTGACATTCGCTACCACGCCCGAGTCTCGGAGTCACCTAGTGCAG | 3190 fluorescence intensity (a.u.)
12 | CTAATACGATATAAACATTATTATCTATCCGTATTGGCTCCGGAGTCACCTAGTGCAG | 33900 fluorescence intensity (a.u.)
13 | AGAAATTGAATTGCTTGCTACAGAGAAGCTAGAAGAGTTTCGGAGTCACCTAGTGCAG | 64800 fluorescence intensity (a.u.)
14 | TGTCGAGTGAAAGTTGACGTACTCAAGATCATCCATATGCCGGAGTCACCTAGTGCAG | 3170 fluorescence intensity (a.u.)
15 | TTTTGTCCATTTTCTGGATTCTACGACTACAATTTCTTAGCGGAGTCACCTAGTGCAG | 3160 fluorescence intensity (a.u.)
16 | CACGGCACCGGATCCGGTCGGCGCCGACGCCATGCCCTGACGGAGTCACCTAGTGCAG | 34800 fluorescence intensity (a.u.)
17 | ACAGCTATGGGAATTGTCCAAAACACCCTCAACCGTCATTCGGAGTCACCTAGTGCAG | 31500 fluorescence intensity (a.u.)
18 | TGTCCTAATTAACCCGTCAGTCCACTTCTCCTTCTTCTTCCGGAGTCACCTAGTGCAG | 3710 fluorescence intensity (a.u.)
19 | TCAATCTGGCGGGGTTTATTTGTGACCCTCGATCGGTCAACGGAGTCACCTAGTGCAG | 4060 fluorescence intensity (a.u.)
20 | CATCTGAACTGAAGGCCCAATACGTCAGCGAGGGACGGCCCGGAGTCACCTAGTGCAG | 5780 fluorescence intensity (a.u.)
21 | CATGTTTGGCAGTGTTCGTTCCCACGTTTCGATATAGCGACGGAGTCACCTAGTGCAG | 3360 fluorescence intensity (a.u.)

Row | Sequence | binding signal
22 | TTGAGAGACTTTGATGCTGAATCAATGACTCACATGTGCTCGGAGTCACCTAGTGCAG | 10300 fluorescence intensity (a.u.)
23 | TAATGCCACCTAAGCGCCACGTCAACGTCGCGTGTAAAGGCGGAGTCACCTAGTGCAG | 28800 fluorescence intensity (a.u.)
24 | ATTGAACATTCGTCGCAGAGAGGAATGCACTGCCGCGTGGCGGAGTCACCTAGTGCAG | 3530 fluorescence intensity (a.u.)
25 | TTAGATTATTGAGTCAGATTACTATAAGCTAGATTATTATCGGAGTCACCTAGTGCAG | 3770 fluorescence intensity (a.u.)
26 | ATCGGCAGAGGCGACACCAGCGTGCCTCCACATCGGCTTCCGGAGTCACCTAGTGCAG | 3990 fluorescence intensity (a.u.)
27 | GGGCAGATCCGGCGCCCGACGCCGGCGGATCCGCCGTCGTCGGAGTCACCTAGTGCAG | 32500 fluorescence intensity (a.u.)
28 | ATTTTACAATGTGTAGTATGCATTCGTTGTCAATCTTTCTCGGAGTCACCTAGTGCAG | 3650 fluorescence intensity (a.u.)
29 | ATGAGAGATAGATGACACGTCAGAAGCCAGAGCGAATTGGCGGAGTCACCTAGTGCAG | 11500 fluorescence intensity (a.u.)
30 | TAATTCGGGTGGTTGAGTAGCGCGCGTGGCGTAATTGCTGCGGAGTCACCTAGTGCAG | 3830 fluorescence intensity (a.u.)
31 | GCTGGATTTCCTACTAATGTTAGTGAGAACACTCTAGAAACGGAGTCACCTAGTGCAG | 4370 fluorescence intensity (a.u.)
32 | ATATGCAGGGCCGAATGTGGAAGACGATATATGCGCTTAACGGAGTCACCTAGTGCAG | 22100 fluorescence intensity (a.u.)
33 | CAGTCAGTCAGTAGGTTCCCAGAATTTTCTCCCTGCAAACCGGAGTCACCTAGTGCAG | 50200 fluorescence intensity (a.u.)
34 | ACTGCCACTACCACTACCACTACCACTACCACCACCACACCGGAGTCACCTAGTGCAG | 4090 fluorescence intensity (a.u.)
35 | GAATCAATTGTCCATTGGATTATCGCAGCTGCAATCAGTGCGGAGTCACCTAGTGCAG | 3290 fluorescence intensity (a.u.)
36 | TCCCAATCAAATTGCCATGTAAGGGCCACGTTGGGACGAACGGAGTCACCTAGTGCAG | 4600 fluorescence intensity (a.u.)
37 | CTTCCGGGTGACTTGCTGAGTAATGTGGTTGTACTTATTCCGGAGTCACCTAGTGCAG | 4170 fluorescence intensity (a.u.)
38 | GTTGCGCACTTTATATATACACGTAGCAAACGGTTCAATTCGGAGTCACCTAGTGCAG | 3950 fluorescence intensity (a.u.)
39 | CTCGGCCGCGGCCGGGGCACCGGAAGAGGGACCTCAGCGGCGGAGTCACCTAGTGCAG | 26500 fluorescence intensity (a.u.)
40 | TCGTCCCGCCTCCCTGCCTCGCTCGCAGCACCGCCGGGTCCGGAGTCACCTAGTGCAG | 3430 fluorescence intensity (a.u.)
41 | CCGGCGCGCTACCCTCGCTTTCGCTTGCTGCAAGAGCGCACGGAGTCACCTAGTGCAG | 3240 fluorescence intensity (a.u.)
42 | TCTAAATTCTTATATTTTGGGATGGAAAGAGTATATGTTACGGAGTCACCTAGTGCAG | 7380 fluorescence intensity (a.u.)

2 records picked at random from the list so far, as already listed:
Row | Sequence | binding signal
21 | CATGTTTGGCAGTGTTCGTTCCCACGTTTCGATATAGCGACGGAGTCACCTAGTGCAG | 3360 fluorescence intensity (a.u.)
8 | TGGATATTTTCTCCGTCGATTGGTACAGTACACAGGTGTGCGGAGTCACCTAGTGCAG | 3190 fluorescence intensity (a.u.)
